The list shows a part of the results. These are further read-outs of the screen, such as a control signal, another cell line or another target. No call is given for them. Compounds called inactive in the main read-out are mostly missing here.

The nature of the assay: dynein cargo transport inhibitors, GR-EGFP translocation, confirmation, imaging, high-content imaging, GR-EGFP cells (AID 463116). As to conditions: 3617.4 GR-EGFP nuclear translocation imaging, dexamethasone-induced; measured here: cell count per field; at 20 µM.
Turning to `N=c1oc2c3c4c(cc2cc1C(=O)Nc1ccccc1)CCCN4CCC3`, the z-score was -0.167.

For the molecule `COc1cccc(C(=O)Oc2ccccc2/C=C\C(=O)c2cc3ccccc3o2)c1`, the z-score turned out to be 0.176.

The molecule `Cc1nc2ccccc2c(=O)n1/N=C/c1ccc([N+](=O)[O-])o1` returned a z-score of -0.315.

The molecule `CC(/C=N/n1c(COc2ccccc2)n[nH]c1=S)=C\c1ccco1` registered a z-score of 0.886.

Turning to `COC/C=C/C1=CC2=CC(=O)C(C)(OC(=O)c3cnc4ccccc4n3)C(=O)C2=CN1Cc1ccc(OC)cc1` (stereo unspecified), the z-score is -0.106.

Turning to `CCCCN(C)C1=CC2=CC(=C(C#N)C#N)CCC2CC1` (stereo unspecified), the z-score was determined as 0.124.

Take `COC(=O)c1cn(NC(=O)c2cc([N+](=O)[O-])ccc2F)c(=O)c2ccccc12`: the z-score is 0.622.

Regarding `O=[N+]([O-])c1ccc(C2=NN(c3ccccc3)C(c3ccco3)C2)cc1` (stereo unspecified), the z-score is 0.737.

As to `CN(c1ccccc1)c1ccc(/C=C/[N+](=O)[O-])cc1`, the z-score was -3.79.

In turn, `N#C/C(C(=O)c1ccccc1)=C1/SC=C(N)N1c1ccccc1` had a z-score of 0.378.

With `Cc1occc1-c1nnc(SCC(=O)N2CCc3ccccc32)o1`, the z-score is 0.189.

For `CCCN1C/C(=C/c2ccc3c(c2)OCO3)C(=O)/C(=C/c2ccc3c(c2)OCO3)C1`, the z-score was 0.569.

In turn, `Cc1nn(C)c(C(=O)Sc2cccc(Cl)c2)c1[N+](=O)[O-]` gave a z-score of -0.182.

For `COc1ccc(N=CC2=C(Nc3ccc(OC)cc3)c3c(C)nn(-c4ccccn4)c3CC2)cc1`, the z-score amounted to 0.335.

With `N#CC12COC3(CCCCC3C1(C#N)C#N)OC2=N` (stereo unspecified), the z-score is -0.173.

`CCOC(=O)C(=Cc1ccc(OCc2ccc([N+](=O)[O-])cc2)c(OC)c1)C(=O)OCC` gave a z-score of -0.171.

For `CCn1nc(C)cc1C(=O)Sc1cccc(Cl)c1`, the z-score was determined as 0.375.

As to `O=C1C2C3C=CC(CO)(O3)C2C(=O)N1c1ccc(-c2ccccc2)cc1` (stereo unspecified), the z-score was -0.983.

`CCOC(=O)C1=C(SCC)c2cc3c(n2C1=O)CCCC3`: the z-score was 0.393.

With `Cc1ccc(-c2nc(NC(=O)c3nn(C)cc3[N+](=O)[O-])sc2C)cc1`, the z-score turned out to be 0.0659.

In turn, `CC(=O)NCc1ccc(C(=O)CCl)s1` registered a z-score of -0.0755.

The molecule `CCOc1ccc(C(=O)/C=C/c2cc(OC)c(OC)c(OC)c2)cc1` gave a z-score of 0.0235.

For the molecule `CCn1nc(C)cc1C(=O)Sc1cccc(Br)c1`, the z-score was -0.165.

The molecule `O=C1C=CC(=O)N1c1ccc(O)cc1` came in with a z-score of -5.48.

`NC(=O)/C=C/C(=O)Nc1ccc(Cl)cc1` registered a z-score of -0.0463.

Regarding `CC(C)(C)C(=O)/C=c1\s/c(=C\c2ccc(-c3ccc([N+](=O)[O-])cc3)o2)c(=O)n1CC(=O)NC(N)=O`, the z-score amounted to 0.221.

In turn, `O=c1c(Cl)cc(Cl)nn1-c1ccccc1` returned a z-score of 0.351.

As to `O=C(CC1Sc2ncnn2C1=O)Nc1ccc(Br)cc1` (stereo unspecified), the z-score amounted to 0.574.

As for `O=c1c(Cl)c(NCCCO)cnn1-c1nc2ccccc2[nH]1`, the z-score worked out at 0.55.

Consider `O=S(=O)(c1ccccc1)c1ncc(C(F)(F)F)cc1Cl`, for which the z-score is 0.401.

The molecule `CCCCNc1ccc2c3c(cccc13)C(=O)N(CCCC)C2=O` registered a z-score of -0.241.

With `CCCCCn1c(=O)c2ccccc2n2c(CCl)nnc12`, the z-score is -0.304.

`O=C(Cc1cccs1)Nc1nc(-c2ccc(F)cc2F)cs1` registered a z-score of -0.372.

On to `O=S(=O)(CCN(CCS(=O)(=O)C(F)(F)F)CC1CCCO1)C(F)(F)F` (stereo unspecified), for which the z-score amounted to 0.838.

`O=S(=O)(c1cnc(Cl)c(Br)c1)N1CCc2ccccc21` yielded a z-score of -0.273.

In the case of `O=C(CCl)Nc1cc(SCC(O)CO)cc([N+](=O)[O-])c1` (stereo unspecified), the z-score was found to be 0.611.

`CCC(=O)N1CCN(c2ccc(NC(=O)c3ccc([N+](=O)[O-])o3)cc2)CC1` yielded a z-score of 0.0389.

With `Cc1ccc(-n2nnnc2CCl)cc1`, the z-score came to 0.0417.

In the case of `COc1cccc(/C=C/C(=O)c2ccc(C)c([N+](=O)[O-])c2)c1`, the z-score amounted to 0.404.

`CCCCS(=O)(=O)/C=C\C=C/S(=O)(=O)CCCC` registered a z-score of 0.132.

`C[C@@H](NC(=O)OC(C)(C)C)c1nnc(S(=O)(=O)Cc2ccccc2)o1` gave a z-score of 0.919.

`CCOc1nc(C#N)nc(N2CCCCC2)n1` yielded a z-score of 0.386.

Molecule `O=C(Cn1ncc(Cl)c(Cl)c1=O)N1CCN(S(=O)(=O)c2ccc3ccccc3c2)CC1` came in with a z-score of 0.336.

On to `O=C1CCCCc2sc(Br)c([N+](=O)[O-])c2N1`, for which the z-score was -0.0348.

In turn, `O=C(Nc1ccccc1)c1nnsc1S(=O)c1ccc(Cl)cc1` (stereo unspecified) gave a z-score of -1.77.

Molecule `Cc1cc(C(=O)Cn2ncc(Cl)c(Cl)c2=O)c(C)n1CC(F)(F)F` registered a z-score of -0.264.

`CC1=CC(=O)C=C(C)C1=NOS(=O)(=O)c1ccccc1`: the z-score turned out to be 0.8.

The molecule `CCCCCCC(=O)N(O)C1CC(=O)N(c2ccc(Cl)cc2)C1=O` (stereo unspecified) gave a z-score of 0.537.

With `O=C(/C=C/c1ccccc1Cl)c1cccnc1`, the z-score turned out to be 0.136.

`CCOc1ccc2nc(SC3CC(=O)N(c4ccc(OC)cc4OC)C3=O)sc2c1` (stereo unspecified) gave a z-score of 0.173.

Take `O=C(c1nnsc1S(=O)(=O)c1ccc(Cl)cc1)N1CCOCC1`: the z-score stood at 0.964.

`CN(C)c1ccc(/C=C/C(=O)c2cccc(Br)c2)cc1` gave a z-score of 0.277.

In the case of `Cc1cc(Sc2nc(N)ncc2[N+](=O)[O-])ncn1`, the z-score was determined as 0.266.

On to `CC1(C)C(=O)Nc2ccccc2N1C(=O)Cn1ncc(Cl)c(Cl)c1=O`, for which the z-score was found to be 0.178.

Regarding `CCC(=O)OCCNc1cc(SCCC(=O)OC)c2nonc2c1[N+](=O)[O-]`, the z-score is 0.0119.

For the molecule `O=C(Nc1ccc(N2CCCC2)c(Cl)c1)c1ccc([N+](=O)[O-])o1`, the z-score amounted to 0.267.

Molecule `Cc1cc(/C=C2\Sc3ccccc3N2C)cc(C)[n+]1CC1CCCO1` (stereo unspecified) yielded a z-score of -0.307.

Molecule `COc1ccc(-c2cc(N)n(S(=O)(=O)c3c(F)c(F)c(F)c(F)c3F)n2)cc1OC` registered a z-score of -0.602.

As for `O=c1[nH]sc2ccccc12`, the z-score came out at 0.32.

Take `O=C(/C=C/c1ccccn1)c1ccc(Br)cc1O`: the z-score is 0.709.

`Cc1c(-c2ccc(O)cc2)nc2nc(-c3ccccc3)c(-c3ccccc3)nn12` came in with a z-score of 0.136.

The molecule `O=C(c1ccccc1)c1cc(Cl)ccc1N1C(=O)C=CC1=O` displayed a z-score of -1.48.

On to `Cc1cccn2c(=O)c(C=O)c(Cl)nc12`, for which the z-score was 0.305.

`O=C(CS(=O)c1ccc(C(F)(F)F)cc1[N+](=O)[O-])Oc1ccccc1` (stereo unspecified) displayed a z-score of -0.53.

In turn, `CN(C)c1nc(C=C(C#N)C#N)c(Cl)n1-c1ccc(F)cc1` registered a z-score of 0.946.

`O=C(NCc1ccccn1)c1coc(=O)c(Br)c1` returned a z-score of -0.137.

Molecule `O=C(Cn1c(=O)oc2cc(S(=O)(=O)NCc3ccccc3)ccc21)N1CCCC1` gave a z-score of -0.311.

The molecule `CC[C@H](C)/C=C(C)/C=C/C(=O)Cc1cc(O)c(C)c(O)c1C=O` showed a z-score of 0.389.

Turning to `O=Cc1s/c(=N\S(=O)(=O)c2ccccc2)n(CCCCl)c1Cl`, the z-score stood at 0.116.

The molecule `O=c1c(Cl)c(Cl)cnn1Cc1ccccc1Cl` yielded a z-score of 0.338.

On to `CC1(C)COC(/C=C/c2ccc([N+](=O)[O-])cc2)=N1`, for which the z-score turned out to be 0.627.
